Measured values taken from publication doi:10.1101/346619.
These are yes or no findings as the source states them, for the method shown. Some binding calls cover weakened binding; strength is not graded here. Sequences can lack the tags named with a protein.

What was measured:
Experiment in all cases: two-hybrid
[1] = molecular target: T1, NCoR1 carboxy-terminal (C) domain (NCoR1-C) (mouse) (UniProt Q60974)
T1 sequence: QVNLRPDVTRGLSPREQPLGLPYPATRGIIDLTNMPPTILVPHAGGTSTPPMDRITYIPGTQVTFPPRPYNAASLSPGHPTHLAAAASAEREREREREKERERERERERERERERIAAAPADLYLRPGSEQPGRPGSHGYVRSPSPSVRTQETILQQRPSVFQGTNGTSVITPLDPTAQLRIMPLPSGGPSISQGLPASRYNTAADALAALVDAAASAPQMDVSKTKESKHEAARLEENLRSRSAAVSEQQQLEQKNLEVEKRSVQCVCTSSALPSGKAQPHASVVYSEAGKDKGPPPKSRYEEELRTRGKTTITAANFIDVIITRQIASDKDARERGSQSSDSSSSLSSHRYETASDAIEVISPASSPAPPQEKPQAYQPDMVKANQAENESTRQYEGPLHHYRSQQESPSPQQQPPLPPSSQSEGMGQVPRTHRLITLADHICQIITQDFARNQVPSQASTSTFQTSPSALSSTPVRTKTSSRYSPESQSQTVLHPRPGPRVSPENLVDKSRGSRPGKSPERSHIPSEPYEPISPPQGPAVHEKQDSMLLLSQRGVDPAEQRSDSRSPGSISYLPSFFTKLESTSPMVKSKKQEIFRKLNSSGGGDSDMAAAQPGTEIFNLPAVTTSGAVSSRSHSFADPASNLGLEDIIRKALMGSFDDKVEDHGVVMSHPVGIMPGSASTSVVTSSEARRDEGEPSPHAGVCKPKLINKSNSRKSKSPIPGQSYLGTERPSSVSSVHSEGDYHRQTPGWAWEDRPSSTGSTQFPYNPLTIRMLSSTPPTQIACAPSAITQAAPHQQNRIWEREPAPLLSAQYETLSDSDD

[2] = molecular target: T2, Sin3A, two-hybrid fusion (mouse) (UniProt Q60520)
T2 sequence: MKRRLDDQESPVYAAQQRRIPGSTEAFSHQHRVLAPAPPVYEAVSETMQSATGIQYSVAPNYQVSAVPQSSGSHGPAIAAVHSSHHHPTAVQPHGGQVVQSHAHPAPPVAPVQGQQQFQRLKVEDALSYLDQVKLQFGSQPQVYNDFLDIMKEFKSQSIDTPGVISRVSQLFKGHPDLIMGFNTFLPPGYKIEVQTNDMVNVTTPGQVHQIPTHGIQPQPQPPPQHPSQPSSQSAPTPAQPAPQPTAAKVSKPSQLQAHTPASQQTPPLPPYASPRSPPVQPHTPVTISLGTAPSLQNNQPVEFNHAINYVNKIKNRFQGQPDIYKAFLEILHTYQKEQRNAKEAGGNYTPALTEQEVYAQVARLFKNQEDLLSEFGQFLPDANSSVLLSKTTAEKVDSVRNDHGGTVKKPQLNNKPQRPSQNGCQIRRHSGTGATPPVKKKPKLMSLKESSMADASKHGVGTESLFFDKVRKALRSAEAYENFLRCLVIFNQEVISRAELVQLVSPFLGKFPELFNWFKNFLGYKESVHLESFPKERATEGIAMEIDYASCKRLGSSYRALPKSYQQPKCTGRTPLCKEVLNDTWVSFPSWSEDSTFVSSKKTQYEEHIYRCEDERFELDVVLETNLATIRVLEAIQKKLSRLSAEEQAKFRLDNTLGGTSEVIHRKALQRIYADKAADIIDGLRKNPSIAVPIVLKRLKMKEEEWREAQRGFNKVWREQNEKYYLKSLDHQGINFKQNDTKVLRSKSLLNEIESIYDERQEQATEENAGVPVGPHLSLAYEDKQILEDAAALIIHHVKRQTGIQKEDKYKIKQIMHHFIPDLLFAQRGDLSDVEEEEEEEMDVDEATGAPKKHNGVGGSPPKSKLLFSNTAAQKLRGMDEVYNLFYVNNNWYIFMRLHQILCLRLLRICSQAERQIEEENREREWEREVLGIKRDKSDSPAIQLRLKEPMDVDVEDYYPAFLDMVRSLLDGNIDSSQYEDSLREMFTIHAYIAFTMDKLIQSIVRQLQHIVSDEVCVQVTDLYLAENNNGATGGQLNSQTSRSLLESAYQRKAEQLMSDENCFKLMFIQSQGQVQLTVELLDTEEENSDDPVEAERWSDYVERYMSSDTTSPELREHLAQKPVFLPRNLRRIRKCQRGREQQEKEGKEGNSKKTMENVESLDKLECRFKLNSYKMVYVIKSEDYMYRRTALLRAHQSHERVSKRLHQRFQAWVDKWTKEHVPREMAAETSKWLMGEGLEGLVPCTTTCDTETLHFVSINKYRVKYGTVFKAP

[3] = molecular target: T3, TR2 (NR2C1), two-hybrid fusion (UniProt Q505F1)
T3 sequence: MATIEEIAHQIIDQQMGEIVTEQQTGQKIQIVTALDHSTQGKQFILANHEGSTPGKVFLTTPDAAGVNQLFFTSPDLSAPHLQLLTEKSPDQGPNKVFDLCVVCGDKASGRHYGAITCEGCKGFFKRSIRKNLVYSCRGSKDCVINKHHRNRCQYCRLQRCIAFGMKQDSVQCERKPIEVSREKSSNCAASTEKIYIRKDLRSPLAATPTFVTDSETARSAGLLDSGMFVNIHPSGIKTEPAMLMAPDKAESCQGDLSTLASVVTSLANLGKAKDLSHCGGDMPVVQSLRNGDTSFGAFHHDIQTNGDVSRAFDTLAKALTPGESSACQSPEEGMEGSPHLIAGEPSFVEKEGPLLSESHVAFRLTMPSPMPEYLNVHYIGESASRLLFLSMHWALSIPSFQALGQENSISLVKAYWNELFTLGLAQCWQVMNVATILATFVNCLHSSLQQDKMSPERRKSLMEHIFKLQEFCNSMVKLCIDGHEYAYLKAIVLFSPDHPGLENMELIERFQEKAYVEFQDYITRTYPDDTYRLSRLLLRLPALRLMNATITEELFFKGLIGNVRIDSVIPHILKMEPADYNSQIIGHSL

[4] = molecular target: T4, TR4 (NR2C2), two-hybrid fusion (UniProt P49117)
T4 sequence: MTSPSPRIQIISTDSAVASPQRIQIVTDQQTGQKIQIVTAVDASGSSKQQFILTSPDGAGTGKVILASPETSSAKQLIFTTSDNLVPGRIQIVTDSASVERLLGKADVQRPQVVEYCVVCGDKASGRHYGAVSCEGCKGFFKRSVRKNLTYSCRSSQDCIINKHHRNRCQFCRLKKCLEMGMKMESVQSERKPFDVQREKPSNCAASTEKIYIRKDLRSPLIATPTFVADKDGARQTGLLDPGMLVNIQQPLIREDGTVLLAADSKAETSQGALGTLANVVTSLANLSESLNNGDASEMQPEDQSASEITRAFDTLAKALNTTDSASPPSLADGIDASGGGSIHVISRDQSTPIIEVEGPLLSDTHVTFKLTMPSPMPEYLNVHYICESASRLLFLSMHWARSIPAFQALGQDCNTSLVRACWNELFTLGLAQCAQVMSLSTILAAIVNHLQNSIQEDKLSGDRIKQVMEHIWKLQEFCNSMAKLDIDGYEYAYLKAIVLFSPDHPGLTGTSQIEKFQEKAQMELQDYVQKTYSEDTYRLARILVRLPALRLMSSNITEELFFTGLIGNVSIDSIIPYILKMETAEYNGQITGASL

Binder	binding [1]	binding [2]	binding [3]	binding [4]
TR2 (NR2C1), two-hybrid fusion (protein, UniProt Q505F1 1-590) MATIEEIAHQIIDQQMGEIVTEQQTGQKIQIVTALDHSTQGKQFILANHEGSTPGKVFLTTPDAAGVNQLFFTSPDLSAPHLQLLTEKSPDQGPNKVFDLCVVCGDKASGRHYGAITCEGCKGFFKRSIRKNLVYSCRGSKDCVINKHHRNRCQYCRLQRCIAFGMKQDSVQCERKPIEVSREKSSNCAASTEKIYIRKDLRSPLAATPTFVTDSETARSAGLLDSGMFVNIHPSGIKTEPAMLMAPDKAESCQGDLSTLASVVTSLANLGKAKDLSHCGGDMPVVQSLRNGDTSFGAFHHDIQTNGDVSRAFDTLAKALTPGESSACQSPEEGMEGSPHLIAGEPSFVEKEGPLLSESHVAFRLTMPSPMPEYLNVHYIGESASRLLFLSMHWALSIPSFQALGQENSISLVKAYWNELFTLGLAQCWQVMNVATILATFVNCLHSSLQQDKMSPERRKSLMEHIFKLQEFCNSMVKLCIDGHEYAYLKAIVLFSPDHPGLENMELIERFQEKAYVEFQDYITRTYPDDTYRLSRLLLRLPALRLMNATITEELFFKGLIGNVRIDSVIPHILKMEPADYNSQIIGHSL	binds	binds	–	–
TR4 (NR2C2), two-hybrid fusion (protein, UniProt P49117 1-596) MTSPSPRIQIISTDSAVASPQRIQIVTDQQTGQKIQIVTAVDASGSSKQQFILTSPDGAGTGKVILASPETSSAKQLIFTTSDNLVPGRIQIVTDSASVERLLGKADVQRPQVVEYCVVCGDKASGRHYGAVSCEGCKGFFKRSVRKNLTYSCRSSQDCIINKHHRNRCQFCRLKKCLEMGMKMESVQSERKPFDVQREKPSNCAASTEKIYIRKDLRSPLIATPTFVADKDGARQTGLLDPGMLVNIQQPLIREDGTVLLAADSKAETSQGALGTLANVVTSLANLSESLNNGDASEMQPEDQSASEITRAFDTLAKALNTTDSASPPSLADGIDASGGGSIHVISRDQSTPIIEVEGPLLSDTHVTFKLTMPSPMPEYLNVHYICESASRLLFLSMHWARSIPAFQALGQDCNTSLVRACWNELFTLGLAQCAQVMSLSTILAAIVNHLQNSIQEDKLSGDRIKQVMEHIWKLQEFCNSMAKLDIDGYEYAYLKAIVLFSPDHPGLTGTSQIEKFQEKAQMELQDYVQKTYSEDTYRLARILVRLPALRLMSSNITEELFFTGLIGNVSIDSIIPYILKMETAEYNGQITGASL	binds	binds	–	–
NCoR1 carboxy-terminal (C) domain (NCoR1-C) (domain or fragment, UniProt Q60974 1630-2453) QVNLRPDVTRGLSPREQPLGLPYPATRGIIDLTNMPPTILVPHAGGTSTPPMDRITYIPGTQVTFPPRPYNAASLSPGHPTHLAAAASAEREREREREKERERERERERERERERIAAAPADLYLRPGSEQPGRPGSHGYVRSPSPSVRTQETILQQRPSVFQGTNGTSVITPLDPTAQLRIMPLPSGGPSISQGLPASRYNTAADALAALVDAAASAPQMDVSKTKESKHEAARLEENLRSRSAAVSEQQQLEQKNLEVEKRSVQCVCTSSALPSGKAQPHASVVYSEAGKDKGPPPKSRYEEELRTRGKTTITAANFIDVIITRQIASDKDARERGSQSSDSSSSLSSHRYETASDAIEVISPASSPAPPQEKPQAYQPDMVKANQAENESTRQYEGPLHHYRSQQESPSPQQQPPLPPSSQSEGMGQVPRTHRLITLADHICQIITQDFARNQVPSQASTSTFQTSPSALSSTPVRTKTSSRYSPESQSQTVLHPRPGPRVSPENLVDKSRGSRPGKSPERSHIPSEPYEPISPPQGPAVHEKQDSMLLLSQRGVDPAEQRSDSRSPGSISYLPSFFTKLESTSPMVKSKKQEIFRKLNSSGGGDSDMAAAQPGTEIFNLPAVTTSGAVSSRSHSFADPASNLGLEDIIRKALMGSFDDKVEDHGVVMSHPVGIMPGSASTSVVTSSEARRDEGEPSPHAGVCKPKLINKSNSRKSKSPIPGQSYLGTERPSSVSSVHSEGDYHRQTPGWAWEDRPSSTGSTQFPYNPLTIRMLSSTPPTQIACAPSAITQAAPHQQNRIWEREPAPLLSAQYETLSDSDD	–	binds	binds	binds
